Results deposited as PubChem BioAssay AID1159592 (NIAID, 2016)
The deposit covers 756 reagents; this is a part drawn at random. In the full data, 147 (19%) were called active. 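Active covers both loss and gain of p65 entry; negative z means weaker NF-kB activation, positive means more nuclear p65.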 Reagents against one gene are numbered here. No sequences are given here. Not given: the amount of reagent.

Assay: 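Toll-like receptor pathway genes that R848 needs to send NF-kB into the nucleus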
Cell system: RAW264.7 macrophages from mouse bearing reporters for p65 (GFP) and the Tnf promoter (mCherry)
Knock-down reagent: single siRNA against mouse genes
Duration: 48 to 72 hours after siRNA transfection
Treatment: R848 TLR ligand for 40 minutes before fixation; dose not given
Measurement: 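Nuclear over cytoplasmic GFP-p65 signal imaged 40 minutes after R848, plate-normalised by median and MAD, given as robust z versus negative controls, mean of replicates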
Scale: NF-kB translocation z-score: higher = more p65 moved into the nucleus than in negative-control wells
Hit rule: 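a call of active needs an averaged z beyond 1.5 in either direction; tiers of absolute z at 1, 1.5, 2 and 2.5 are also set by the depositor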
Meaning of the calls: active = strong change, either direction; inactive = little change

no.	target	siRNA no.	NF-kB translocation z-score, replicate mean	activity call
1	Jun (Jun proto-oncogene, AP-1 transcription factor subunit)	1	0.472	inactive
2	Jun (Jun proto-oncogene, AP-1 transcription factor subunit)	2	-2.94	active
3	Jun (Jun proto-oncogene, AP-1 transcription factor subunit)	3	-0.488	inactive
4	Jun (Jun proto-oncogene, AP-1 transcription factor subunit)	4	-1.85	active
5	Jun (Jun proto-oncogene, AP-1 transcription factor subunit)	5	-1.71	active
6	Jun (Jun proto-oncogene, AP-1 transcription factor subunit)	6	-0.423	inactive
7	Ifnar1 (interferon (alpha and beta) receptor 1)	1	-1.32	inactive
8	Ifnar1 (interferon (alpha and beta) receptor 1)	2	0.637	inactive
9	Ifnar1 (interferon (alpha and beta) receptor 1)	3	-1.47	inactive
10	Ifnar1 (interferon (alpha and beta) receptor 1)	4	1.41	inactive
11	Ifnar1 (interferon (alpha and beta) receptor 1)	5	-0.634	inactive
12	Ifnar1 (interferon (alpha and beta) receptor 1)	6	-1.32	inactive
13	Tlr9 (toll-like receptor 9)	1	-0.223	inactive
14	Tlr9 (toll-like receptor 9)	2	-0.0503	inactive
15	Tlr9 (toll-like receptor 9)	3	-0.617	inactive
16	Tlr9 (toll-like receptor 9)	4	-0.427	inactive
17	Tlr9 (toll-like receptor 9)	5	-1.03	inactive
18	Tlr9 (toll-like receptor 9)	6	-1.32	inactive
19	Ripk3 (receptor-interacting serine-threonine kinase 3)	1	0.031	inactive
20	Ripk3 (receptor-interacting serine-threonine kinase 3)	2	0.305	inactive
21	Ripk3 (receptor-interacting serine-threonine kinase 3)	3	-1.05	inactive
22	Ripk3 (receptor-interacting serine-threonine kinase 3)	4	-0.912	inactive
23	Ripk3 (receptor-interacting serine-threonine kinase 3)	5	0.201	inactive
24	Ripk3 (receptor-interacting serine-threonine kinase 3)	6	-2.62	active
25	Atf2 (activating transcription factor 2)	1	-0.544	inactive
26	Atf2 (activating transcription factor 2)	2	-1.24	inactive
27	Atf2 (activating transcription factor 2)	3	-0.0444	inactive
28	Atf2 (activating transcription factor 2)	4	-0.486	inactive
29	Atf2 (activating transcription factor 2)	5	-0.566	inactive
30	Atf2 (activating transcription factor 2)	6	0.456	inactive
31	Elk1 (ETS transcription factor ELK1)	1	-0.555	inactive
32	Elk1 (ETS transcription factor ELK1)	2	-0.979	inactive
33	Elk1 (ETS transcription factor ELK1)	3	-0.657	inactive
34	Elk1 (ETS transcription factor ELK1)	4	-2.83	active
35	Elk1 (ETS transcription factor ELK1)	5	-3.06	active
36	Elk1 (ETS transcription factor ELK1)	6	-0.586	inactive
37	Nfkbia	1	-1.68	active
38	Nfkbia	2	-3.39	active
39	Nfkbia	3	-0.874	inactive
40	Nfkbia	4	-2.05	active
41	Nfkbia	5	-1.22	inactive
42	Nfkbia	6	-0.045	inactive
43	Tlr5 (toll-like receptor 5)	1	-0.165	inactive
44	Tlr5 (toll-like receptor 5)	2	0.743	inactive
45	Tlr5 (toll-like receptor 5)	3	0.21	inactive
46	Tlr5 (toll-like receptor 5)	4	-0.139	inactive
47	Tlr5 (toll-like receptor 5)	5	-1.22	inactive
48	Tlr5 (toll-like receptor 5)	6	0.0147	inactive
49	Ptpn6 (protein tyrosine phosphatase, non-receptor type 6)	1	0.514	inactive
50	Ptpn6 (protein tyrosine phosphatase, non-receptor type 6)	2	0.367	inactive
51	Ptpn6 (protein tyrosine phosphatase, non-receptor type 6)	3	-3.02	active
52	Ptpn6 (protein tyrosine phosphatase, non-receptor type 6)	4	-2.08	active
53	Ptpn6 (protein tyrosine phosphatase, non-receptor type 6)	5	-1.49	inactive
54	Ptpn6 (protein tyrosine phosphatase, non-receptor type 6)	6	-1.56	active
55	Map3k7 (mitogen-activated protein kinase kinase kinase 7)	1	-0.0187	inactive
56	Map3k7 (mitogen-activated protein kinase kinase kinase 7)	2	-0.168	inactive
57	Map3k7 (mitogen-activated protein kinase kinase kinase 7)	3	-1.36	inactive
58	Map3k7 (mitogen-activated protein kinase kinase kinase 7)	4	0.448	inactive
59	Map3k7 (mitogen-activated protein kinase kinase kinase 7)	5	-1.67	active
60	Map3k7 (mitogen-activated protein kinase kinase kinase 7)	6	-1.35	inactive
61	Map2k4 (mitogen-activated protein kinase kinase 4)	1	0.225	inactive
62	Map2k4 (mitogen-activated protein kinase kinase 4)	2	-0.0793	inactive
63	Map2k4 (mitogen-activated protein kinase kinase 4)	3	-0.0562	inactive
64	Map2k4 (mitogen-activated protein kinase kinase 4)	4	-1.79	active
65	Map2k4 (mitogen-activated protein kinase kinase 4)	5	-0.612	inactive
66	Map2k4 (mitogen-activated protein kinase kinase 4)	6	0.103	inactive
67	Mapk8 (mitogen-activated protein kinase 8)	1	0.774	inactive
68	Mapk8 (mitogen-activated protein kinase 8)	2	-1.34	inactive
69	Mapk8 (mitogen-activated protein kinase 8)	3	-1.04	inactive
70	Mapk8 (mitogen-activated protein kinase 8)	4	-0.534	inactive
71	Mapk8 (mitogen-activated protein kinase 8)	5	-1.56	active
72	Mapk8 (mitogen-activated protein kinase 8)	6	-0.981	inactive
73	Map2k7 (mitogen-activated protein kinase kinase 7)	1	1.18	inactive
74	Map2k7 (mitogen-activated protein kinase kinase 7)	2	-0.281	inactive
75	Map2k7 (mitogen-activated protein kinase kinase 7)	3	-0.413	inactive
76	Map2k7 (mitogen-activated protein kinase kinase 7)	4	-1.25	inactive
77	Map2k7 (mitogen-activated protein kinase kinase 7)	5	-1.03	inactive
78	Map2k7 (mitogen-activated protein kinase kinase 7)	6	-0.85	inactive
79	Rac1 (Rac family small GTPase 1)	1	2.05	active
80	Rac1 (Rac family small GTPase 1)	2	-0.143	inactive
81	Rac1 (Rac family small GTPase 1)	3	-2.7	active
82	Rac1 (Rac family small GTPase 1)	4	-0.197	inactive
83	Rac1 (Rac family small GTPase 1)	5	-0.513	inactive
84	Rac1 (Rac family small GTPase 1)	6	-0.141	inactive
85	Lbp (lipopolysaccharide binding protein)	1	-0.127	inactive
86	Lbp (lipopolysaccharide binding protein)	2	-1.32	inactive
87	Lbp (lipopolysaccharide binding protein)	3	0.989	inactive
88	Lbp (lipopolysaccharide binding protein)	4	-1.44	inactive
89	Lbp (lipopolysaccharide binding protein)	5	0.274	inactive
90	Lbp (lipopolysaccharide binding protein)	6	0.402	inactive
91	Itgax (integrin alpha X)	1	-0.734	inactive
92	Itgax (integrin alpha X)	2	0.269	inactive
93	Itgax (integrin alpha X)	3	-1.43	inactive
94	Itgax (integrin alpha X)	4	-2.23	active
95	Itgax (integrin alpha X)	5	-0.461	inactive
96	Itgax (integrin alpha X)	6	0.215	inactive
97	Tlr4 (toll-like receptor 4)	1	0.0437	inactive
98	Tlr4 (toll-like receptor 4)	2	0.704	inactive
99	Tlr4 (toll-like receptor 4)	3	-0.528	inactive
100	Tlr4 (toll-like receptor 4)	4	0.331	inactive
101	Tlr4 (toll-like receptor 4)	5	0.203	inactive
102	Tlr4 (toll-like receptor 4)	6	0.933	inactive
103	Irf7 (interferon regulatory factor 7)	1	-0.377	inactive
104	Irf7 (interferon regulatory factor 7)	2	0.0677	inactive
105	Irf7 (interferon regulatory factor 7)	3	0.978	inactive
106	Irf7 (interferon regulatory factor 7)	4	-0.955	inactive
107	Irf7 (interferon regulatory factor 7)	5	-0.374	inactive
108	Irf7 (interferon regulatory factor 7)	6	0.46	inactive
109	Pik3r2 (phosphoinositide-3-kinase regulatory subunit 2)	1	-0.882	inactive
110	Pik3r2 (phosphoinositide-3-kinase regulatory subunit 2)	2	-1.03	inactive
111	Pik3r2 (phosphoinositide-3-kinase regulatory subunit 2)	3	-0.181	inactive
112	Pik3r2 (phosphoinositide-3-kinase regulatory subunit 2)	4	-0.561	inactive
113	Pik3r2 (phosphoinositide-3-kinase regulatory subunit 2)	5	-0.244	inactive
114	Pik3r2 (phosphoinositide-3-kinase regulatory subunit 2)	6	0.226	inactive

Reagents listed so far with an active call:
target	siRNA no.	NF-kB translocation z-score, replicate mean	activity call
Jun (Jun proto-oncogene, AP-1 transcription factor subunit)	2	-2.94	active
Jun (Jun proto-oncogene, AP-1 transcription factor subunit)	4	-1.85	active
Jun (Jun proto-oncogene, AP-1 transcription factor subunit)	5	-1.71	active
Ripk3 (receptor-interacting serine-threonine kinase 3)	6	-2.62	active
Elk1 (ETS transcription factor ELK1)	4	-2.83	active
Elk1 (ETS transcription factor ELK1)	5	-3.06	active
Nfkbia	1	-1.68	active
Nfkbia	2	-3.39	active
Nfkbia	4	-2.05	active
Ptpn6 (protein tyrosine phosphatase, non-receptor type 6)	3	-3.02	active
Ptpn6 (protein tyrosine phosphatase, non-receptor type 6)	4	-2.08	active
Ptpn6 (protein tyrosine phosphatase, non-receptor type 6)	6	-1.56	active
Map3k7 (mitogen-activated protein kinase kinase kinase 7)	5	-1.67	active
Map2k4 (mitogen-activated protein kinase kinase 4)	4	-1.79	active
Mapk8 (mitogen-activated protein kinase 8)	5	-1.56	active
Rac1 (Rac family small GTPase 1)	1	2.05	active
Rac1 (Rac family small GTPase 1)	3	-2.7	active
Itgax (integrin alpha X)	4	-2.23	active
